{"sequences": {"note": "The chains behind the UniProt entries cited, without tags or fusion partners. Residues count along the entry.", "UniProt P15208, residues 28-1372": "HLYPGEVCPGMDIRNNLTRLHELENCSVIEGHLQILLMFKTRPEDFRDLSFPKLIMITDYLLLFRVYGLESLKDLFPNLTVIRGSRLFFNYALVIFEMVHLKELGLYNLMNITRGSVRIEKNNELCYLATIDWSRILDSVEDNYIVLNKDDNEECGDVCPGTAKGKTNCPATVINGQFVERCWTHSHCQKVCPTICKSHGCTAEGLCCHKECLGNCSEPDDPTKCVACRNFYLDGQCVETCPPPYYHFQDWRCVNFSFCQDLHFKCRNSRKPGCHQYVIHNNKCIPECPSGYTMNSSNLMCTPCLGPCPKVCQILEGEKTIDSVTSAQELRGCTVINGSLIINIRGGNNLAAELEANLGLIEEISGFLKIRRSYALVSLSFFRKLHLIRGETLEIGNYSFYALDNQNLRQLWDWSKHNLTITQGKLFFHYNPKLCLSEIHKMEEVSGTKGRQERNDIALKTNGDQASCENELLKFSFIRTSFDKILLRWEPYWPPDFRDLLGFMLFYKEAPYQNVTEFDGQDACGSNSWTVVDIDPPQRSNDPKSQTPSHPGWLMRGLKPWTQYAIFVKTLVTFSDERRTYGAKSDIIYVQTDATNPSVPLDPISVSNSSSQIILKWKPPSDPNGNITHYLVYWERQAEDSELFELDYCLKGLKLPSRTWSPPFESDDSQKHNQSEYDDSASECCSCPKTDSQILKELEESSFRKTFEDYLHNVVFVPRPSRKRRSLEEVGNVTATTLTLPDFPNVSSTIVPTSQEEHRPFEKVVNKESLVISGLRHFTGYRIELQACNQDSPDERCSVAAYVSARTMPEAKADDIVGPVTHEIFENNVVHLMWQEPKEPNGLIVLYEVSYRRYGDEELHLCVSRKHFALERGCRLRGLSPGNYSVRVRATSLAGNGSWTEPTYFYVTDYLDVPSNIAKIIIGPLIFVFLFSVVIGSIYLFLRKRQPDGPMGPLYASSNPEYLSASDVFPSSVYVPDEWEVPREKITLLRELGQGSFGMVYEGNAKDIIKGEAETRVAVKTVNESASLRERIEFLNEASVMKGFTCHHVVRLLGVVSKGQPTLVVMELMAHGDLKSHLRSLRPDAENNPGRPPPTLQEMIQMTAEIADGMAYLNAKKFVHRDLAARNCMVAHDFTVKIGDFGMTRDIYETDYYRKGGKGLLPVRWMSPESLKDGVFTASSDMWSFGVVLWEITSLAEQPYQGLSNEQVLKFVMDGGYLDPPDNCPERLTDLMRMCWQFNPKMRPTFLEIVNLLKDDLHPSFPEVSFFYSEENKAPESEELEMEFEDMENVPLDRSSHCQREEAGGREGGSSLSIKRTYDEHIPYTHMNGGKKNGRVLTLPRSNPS", "UniProt P63208": "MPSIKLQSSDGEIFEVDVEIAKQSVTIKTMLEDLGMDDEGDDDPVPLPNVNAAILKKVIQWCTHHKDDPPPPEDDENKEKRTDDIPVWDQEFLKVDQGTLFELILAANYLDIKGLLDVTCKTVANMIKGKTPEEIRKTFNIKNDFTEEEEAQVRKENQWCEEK"}, "source": "paper PMC13631264", "molecules": {"B1": {"name": "FBXO2 (endogenous in HEK293T cells) (protein, UniProt Q9UK22 1-296)", "chain": "MDGDGDPESVGQPEEASPEEQPEEASAEEERPEDQQEEEAAAAAAYLDELPEPLLLRVLAALPAAELVQACRLVCLRWKELVDGAPLWLLKCQQEGLVPEGGVEEERDHWQQFYFLSKRRRNLLRNPCGEEDLEGWCDVEHGGDGWRVEELPGDSGVEFTHDESVKKYFASSFEWCRKAQVIDLQAEGYWEELLDTTQPAIVVKDWYSGRSDAGCLYELTVKLLSEHENVLAEFSSGQVAVPQDSDGGGWMEISHTFTDYGPGVRFVRFEHGGQDSVYWKGWFGARVTNSSVWVEP"}}, "biological_target": "IR-Flag (insulin receptor with Flag tag) (UniProt P15208)", "experiment": "affinity purification with mass spectrometry; HEK293T cells transfected with IR-Flag, treated with MG132; NP-40 lysis buffer; anti-FLAG M2 affinity gel overnight, elution with Flag peptides, SDS-PAGE, silver stain, LC-MS/MS of excised bands", "note": "No constants are given. Whether binding was seen depends on the method and setting. Binding seen in cells or lysates may run through a third protein. These calls come from enrichment with a bait or labelling near it, and not all partners need be listed."}
{"molecule": "SKP1 (endogenous in HEK293T cells) (from UniProt P63208 1-163)", "values": [{"measurement": "binding", "value": "binds"}]}
{"molecule": "B1", "values": [{"measurement": "binding", "value": "binds"}]}
